Values quoted from earlier work in article PMC6831628, “Steady-state activation of the high-affinity isoform of the α4β2δ GABAA receptor” (Scientific Reports, 2019).
Like-named read-outs stand apart in the source and are kept apart here.

Biological target: receptors resulting from the expression of α4, β (β2 or β3), and δ subunits
Conditions: read-out: GABA EC50, cited from earlier work

In the case of `NCCCC(=O)O` [GABA], the EC50 (high-affinity type) is given as under 100 nM and the EC50 (low-affinity type) is given as over 1000 nM.
